# In PubChem BioAssay AID1347075 (National Center for Advancing Translational Sciences (NCATS), 2019):
# The campaign covered roughly 400,000 compounds. About 5,500 (1.4%) were called active. Inconclusive means that the source gave no clear call. Such entries were picked first, then a sample of the others. The call rests on the fitted dose curve; in most records, active means well fitted cell-killing curve with a large enough effect; inconclusive means small, poorly fitted or top-dose-only effect, or effect the other way; inactive means flat fitted curve, though single readings scatter. Potencies beside an inconclusive call are fits to weak or partial responses and may not hold up.
# Experiment: qHTS assay for MDR1-selective chemotherapeutics: Primary screen using the parental adenocarcinoma cell KB-3-1; further: nearly all actives have a fitted effect of over 60% in size
# Settings: KB-3-1 viability, CellTiter-Glo ATP luminescence, 72 h; activity change, negative = cytotoxic: at 46.1 µM (top of the series)
# Summary of the method: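 Cells are dispensed, compounds pinned in, plates held at 37 °C for 72 h, then CellTiter-Glo is added and luminescence read after 10 minutes. Cell line: parental KB-3-1 in phenol-red-free DMEM, 10% FBS.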
# On the % scale 0 is the no-effect control and ±100 the full control effect; potency means the concentration at half of the fitted maximal effect.
Compound,Potency,"activity change, negative = cytotoxic"
CCn1c(=O)c(CCC(=O)N2CCOCC2)c(C)c2c(C)nn(-c3ccccc3)c21,"inconclusive: 25.9 µM [cytotoxic, single point]",–
Cc1ccc(Nc2cc(=O)n(C)c(=O)[nH]2)cc1C,–,inactive: -0.522%
O=C(Cc1ccccc1)NCc1ccc(-n2cccc2)cc1,"inconclusive: 23.1 µM [cytotoxic, single point]",–
O=C(COc1ccc(C(=S)N2CCOCC2)cc1)Nc1ccccc1C(F)(F)F,–,inconclusive: -7.95%
CCc1cccc(N2C(=O)CSC23C(=O)N(Cc2ccccc2F)c2ccccc23)c1 (stereo unspecified),active: 20.6 µM,–
C=C1C(=O)[C@@]23[C@H](O)C[C@@H]4C(C)(C)CC[C@H](O)[C@]4(C)[C@@H]2C[C@H](O)[C@@H]1[C@H]3O,"inconclusive: 3.66 µM [cytotoxic, full curve]",–
O=c1oc(-c2ccccc2)cc(Cl)c1Cl,"inconclusive: 23.1 µM [cytotoxic, partial curve, poor fit]",–
Cn1c(=NC(=O)c2ccco2)sc2ccccc21,"inconclusive: 29.1 µM [cytotoxic, single point]",–
Cc1ccc(NC(=O)CCCN2C(=O)/C(=C/C=C/c3ccccc3)SC2=S)cc1,"inconclusive: 29.1 µM [cytotoxic, single point]",–
CCCCN1CCS(=O)(=O)N(Cc2ccccc2Br)CC(C(=O)OC)C1 (stereo unspecified),–,inconclusive: -22%
CC(NC(=O)COC(=O)C1=NN(c2ccccc2)C(=O)CC1)c1ccccc1 (stereo unspecified),"inconclusive: 29.1 µM [rising, single point]",–
O=[N+]([O-])c1ccc(N/N=C/c2cccc(O)c2O)c(S(=O)(=O)N2CCOCC2)c1,"inconclusive: 18.4 µM [cytotoxic, single point]",–
COc1cccc(CN2C(=O)[C@@H]3Cc4c([nH]c5ccccc45)C(C)(C)N3C2=O)c1,"inconclusive: 29.1 µM [cytotoxic, single point]",–
CCCOc1ccc(F)cc1-c1cc(C(=O)Nc2ccc(OC)c(OC)c2)[nH]n1,"inconclusive: 29.1 µM [cytotoxic, single point]",–
CCC1(CC)NC(=O)N(CC(=O)NC(=O)NCc2ccccc2)C1=O,–,inactive: -5.88%
O=C(N/N=C/c1cccc2nccnc12)c1ccccc1O,"inconclusive: 8.2 µM [cytotoxic, partial curve, poor fit]",–
COc1ccccc1N1CCN(CC(=O)Nc2ccc(S(=O)(=O)N3CCCCCC3)cc2)CC1,"inconclusive: 29.1 µM [cytotoxic, single point]",–
CCCCc1ccc(NC(=S)NCc2cccnc2)cc1,"inconclusive: 29.1 µM [cytotoxic, single point]",–
O=C(Cc1cccs1)NNC(=O)c1ccccc1Cl,–,inactive: -10.6%
CCOc1ccc(NC(=O)c2cc(Cl)nc3ccccc23)cc1,"inconclusive: 29.1 µM [cytotoxic, single point]",–
CCn1cc(C(=O)NCCc2ccc(Cl)cc2)c(=O)c2cc(S(=O)(=O)N(C)C)ccc21,"inconclusive: 7.31 µM [rising, partial curve, poor fit]",–
Cn1c(-c2ccccc2)c[n+]2c1-c1ccccc1C2,"inconclusive: 16.4 µM [cytotoxic, partial curve, poor fit]",–

Compound,Potency,"activity change, negative = cytotoxic"
CCN1C(=O)[C@@H]2[C@@H](c3ccc(SC4CCCCC4)cc3)N3CCCC[C@@]3(C(=O)OC)[C@@H]2C1=O,"inconclusive: 29.1 µM [cytotoxic, single point]",–
COc1cccc(NC(=S)N2CCC(c3ccc(C)cc3)C2)c1 (stereo unspecified),"inconclusive: 23.1 µM [cytotoxic, partial curve, poor fit]",–
Cc1nn(S(=O)(=O)c2ccc(C(C)C)cc2)c(C)c1S(=O)(=O)N1CCCCC1,–,inactive: 0.484%
Cc1nc2sc(C(c3ccco3)N3CCN(C(c4ccccc4)c4ccccc4)CC3)c(O)n2n1 (stereo unspecified),"inconclusive: 29.1 µM [cytotoxic, single point]",–
C[C@H]1CN([C@@H](C)CO)C(=O)CCCn2nncc2CO[C@H]1CN(C)S(=O)(=O)c1ccc(-n2cccn2)cc1,–,inactive: 0%
COC(=O)[C@@]12C[C@@H](CC(=O)NCCc3ccccc3OC)C(=O)N(CCc3ccc(OC)c(OC)c3)C1=CCC(C)(C)C2,"inconclusive: 29.1 µM [cytotoxic, single point]",–
COc1ccc2c(c1)OC[C@H]1[C@H]2N2C(=O)c3ccc(F)cc3NC(=O)[C@@]2(C)[C@H]1c1ccccc1,"inconclusive: 25.9 µM [cytotoxic, single point]",–
O=C(Nc1cccc(Cl)c1)c1csc([C@@H]2C[C@H](O)[C@@H](CO)O2)n1,–,inactive: 0%
O=C(Nc1ccc(N2CCN(C(=O)c3ccccc3)CC2)cc1)c1cc2ccccc2o1,"inconclusive: 18.4 µM [cytotoxic, single point]",–
CN(C)c1ccc(/C=C/c2ccnc3c(O)cccc23)cc1,"inconclusive: 2.31 µM [cytotoxic, full curve]",–
CC(=O)N1CCCc2cc(S(=O)(=O)N3CCCC(C(=O)N4CCN(c5ccccc5F)CC4)C3)ccc21 (stereo unspecified),"inconclusive: 25.9 µM [cytotoxic, partial curve, poor fit]",–
Cc1cccc(-n2cnc3c(c2=O)c2nc4ccccc4nc2n3Cc2ccco2)c1,"inconclusive: 29.1 µM [rising, single point]",–
COC(=O)c1c(C)[nH]c(C(=O)/C=C/c2ccc(Cl)cc2)c1C,"inconclusive: 18.4 µM [cytotoxic, single point]",–
Cc1ccc2c(c1)-c1c(cnn1CC(=O)N1CCN(c3cccc(C(F)(F)F)c3)CC1)CO2,–,inactive: -8.12%
CCCCC/S(CC1CC1(Cl)Cl)=N\S(=O)(=O)c1ccc(C)cc1 (stereo unspecified),"inconclusive: 5.8 µM [rising, full curve]",–
Cc1nc(SCC(=O)OC(C)(C)C)c2c3c(sc2n1)CCCC3,–,inactive: -0.625%
O=C(CSc1cn[nH]n1)Nc1cccc(C(=O)O)c1,"inconclusive: 0.411 µM [rising, full curve]",–
NC(=O)CC[C@@H]1NC(=O)[C@@H]2CCCN2C(=O)c2cc([N+](=O)[O-])cc(F)c2NCCC[C@@H](C(N)=O)NC1=O,"inconclusive: 20.6 µM [rising, partial curve, poor fit]",–
Cc1ccnc2c(N)cccc12,"inconclusive: 6.51 µM [rising, partial curve, poor fit]",–
CC1CCCC(NC(=O)COC(=O)c2n[nH]c3ccccc23)C1C (stereo unspecified),–,inactive: 0.206%
Cc1cccc(Cn2cnc3c(nnn3Cc3ccccc3F)c2=O)c1,–,inactive: -9.86%
COC(=O)C1=NN(c2ccccc2)C2C(=O)N(c3ccccc3OC)C(=O)C12 (stereo unspecified),"inconclusive: 29.1 µM [rising, single point]",–

Compound,Potency,"activity change, negative = cytotoxic"
O=c1[nH]ncc(N/N=C\c2cccs2)c1Cl,"inconclusive: 0.82 µM [cytotoxic, full curve, poor fit]",–
CCCCn1c(NS(=O)(=O)c2ccccc2)c(S(=O)(=O)c2ccc(C)cc2)c2nc3ccccc3nc21,active: 11.6 µM,–
c1ccc2c(c1)oc1c(-c3ccc4nccn4c3)cccc12,–,inactive: -13.2%
Cc1ccc(Cn2ccsc2=NC(=O)CCl)cc1,active: 20.6 µM,–
CCCCCCOc1ccc(NC(=O)CC2C(=O)N(CC)C(=S)N2Cc2ccco2)cc1 (stereo unspecified),"inconclusive: 16.4 µM [cytotoxic, single point]",–
Cc1cccc(-c2c3c(nc4c2c(=O)n(C)c(=O)n4C)-c2ccccc2C3O)c1 (stereo unspecified),–,inactive: -12.4%
CC(C)CC1Nc2ncnc(N3CCOCC3)c2N(Cc2ccc(Cl)cc2)C1=O (stereo unspecified),inactive,–
COc1cccc(/C=C/c2nc3ccccc3c(=O)n2-c2ccc(C)c(C)c2)c1OC,"inconclusive: 23.1 µM [cytotoxic, partial curve]",–
CNC(=S)N(CCc1ccc(S(N)(=O)=O)cc1)C1CC(=O)N(c2ccccc2F)C1=O (stereo unspecified),"inconclusive: 29.1 µM [cytotoxic, single point]",–
Cc1ccc(-c2noc(C3CCCN(C(=O)c4ccc(F)cc4F)C3)n2)cc1 (stereo unspecified),"inconclusive: 16.4 µM [cytotoxic, single point]",–
CCN(CC)S(=O)(=O)c1ccc(S(=O)(=O)Nc2c(C)nn(C)c2C)cc1,"inconclusive: 29.1 µM [cytotoxic, single point]",–
O=c1c2ccccc2nc2n1C(CSCc1ccc(Cl)cc1)CS2 (stereo unspecified),"inconclusive: 5.17 µM [cytotoxic, full curve, poor fit]",–
O=C(c1cccn1-c1nnc(N2CCCC2)s1)N1CCN(c2ccc(F)cc2)CC1,–,inactive: 0.48%
O=c1oc2ccccc2c(Nc2cc3ccccc3cc2O)c1[N+](=O)[O-],active: 14.6 µM,–
Cc1cc(OCCN2CCN(S(=O)(=O)c3ccccc3F)CC2)ccc1C(C)C,"inconclusive: 25.9 µM [cytotoxic, single point]",–
CC(C)CC(N)c1csc(NC(=O)Nc2ccccc2C(C)(C)C)n1 (stereo unspecified),"inconclusive: 20.6 µM [cytotoxic, single point]",–
O=C(Cc1ccccc1[N+](=O)[O-])N/N=C/c1cccnc1,–,inactive: 7.76%
Cn1c(=O)c2c(nc(CN3CCCCC3)n2CCCc2ccccc2)n(C)c1=O,–,inactive: -25.6%
CC(=O)Nc1cccc(NC(=O)CSc2nnc3ccc(-c4cccnc4)nn23)c1,–,inactive: 2.22%
Cc1cc(-c2n[nH]c(=S)n2/N=C/C(Cl)=C/c2ccccc2)n[nH]1,"inconclusive: 8.2 µM [rising, partial curve]",–
COc1ccc(NC(=O)c2cc(-c3ccc(OC)c(OC)c3)nc3ccccc23)c(OC)c1,"inconclusive: 6.51 µM [cytotoxic, single point]",–
C=CCNC(=O)COc1ccc(Br)cc1Cl,"inconclusive: 29.1 µM [cytotoxic, single point]",–

# Random excerpt: three compounds from above, in no set order.
Compound,Potency,"activity change, negative = cytotoxic"
CC(C)CC1Nc2ncnc(N3CCOCC3)c2N(Cc2ccc(Cl)cc2)C1=O (stereo unspecified),inactive,–
c1ccc2c(c1)oc1c(-c3ccc4nccn4c3)cccc12,–,inactive: -13.2%
Cn1c(=O)c2c(nc(CN3CCCCC3)n2CCCc2ccccc2)n(C)c1=O,–,inactive: -25.6%
